Measured values published in patent US9758502B2, “Dihydropyrone compounds and herbicides comprising the same” (SUMITOMO CHEMICAL COMPANY, LIMITED, priority 2012, dated 2017).
Some of these results come from one statement about several compounds together.

Experiments:
Galium aparine = assay: Test 1-2 Post-emergence Treatment Test; format: in vivo; conditions: sprayed on whole plants at 1-2 leaf stages, treatment amount 1,000 g/10,000 m^2, after 20 days of the treatment, greenhouse
Echinochloa crus-galli = assay: Test 2-1 Pre-emergence Treatment Test; format: in vivo; conditions: sprayed on the soil surface, treatment amount 1,000 g/10,000 m^2, after 3 weeks of the spraying, greenhouse

Compound: Cc1cc(C)c(C2=C(O)CC(C(C)CSc3ccc(C(F)(F)F)cn3)OC2=O)c(C)c1 (stereo not drawn) [(1-2)]
- efficacy for controlling weeds (visually observed, 11 criteria of 0 to 10) (Galium aparine): ≥ 7

Compound: Cc1cc(C)c(C2=C(O)CC(C(C)C[S+]([O-])c3ccc(C(F)(F)F)cn3)OC2=O)c(C)c1 (stereo not drawn) [(1-10)]
- efficacy for controlling weeds (visually observed, 11 criteria of 0 to 10) (Echinochloa crus-galli): ≥ 7
- efficacy for controlling weeds (visually observed, 11 criteria of 0 to 10) (Galium aparine): ≥ 7

Compound: CCc1cc(C)cc(CC)c1C1=C(O)CC(C(C)C[S+]([O-])c2ccc(C(F)(F)F)cn2)OC1=O (stereo not drawn) [(1-11)]
- efficacy for controlling weeds (visually observed, 11 criteria of 0 to 10) (Echinochloa crus-galli): ≥ 7

Compound: CCc1cc(C)cc(CC)c1C1=C(O)CC(C(C)CS(=O)(=O)c2ccc(C(F)(F)F)cn2)OC1=O (stereo not drawn) [(1-13)]
- efficacy for controlling weeds (visually observed, 11 criteria of 0 to 10) (Echinochloa crus-galli): ≥ 7

Compound: Cc1cc(C)c(C2=C(O)CC(CCSc3ccc(C(F)(F)F)cc3)OC2=O)c(C)c1 (stereo not drawn) [Compound (1-1)]
- efficacy for controlling weeds (visually observed, 11 criteria of 0 to 10) (Galium aparine): ≥ 7
